# Assay results taken from published antibiotic growth screens (doi:10.1016/j.cell.2020.01.021).
# Only a part is listed here, and it is no random draw.
# Test system: E. coli BW25113
# Test: relative growth (fraction of control); higher = less inhibition
# Conditions: 50 µM
row,Structure (SMILES),relative growth
1,CN1CCN(CCCN2c3ccccc3Sc3ccc(Cl)cc32)CC1.O=S(=O)(O)CCS(=O)(=O)O,0.844
